Results taken from US8722690B2, “Mesoionic pesticides” (E I du Pont de Nemours and Company, priority 2009, dated 2014).
Like-named read-outs stand apart in the source and are kept apart here. Some entries share one result that the patent states for a list of compounds. For at least one compound, name, drawing or mass did not settle the structure.

What was measured:
Assay type in all cases: in vivo
[1] = test system: diamondback moth (Plutella xylostella); experiment: Test A: control of diamondback moth on radish plant, foliar spray; details: 6 days, very good to excellent levels of control efficacy
[2] = test system: fall armyworm (Spodoptera frugiperda); experiment: Test B: control of fall armyworm on maize plant, foliar spray; details: very good to excellent levels of control efficacy
[3] = test system: potato leafhopper (Empoasca fabae); details: 6 days, Soleil bean plant, very good to excellent levels of control efficacy
Protocol: For evaluating control of potato leafhopper (Empoasca fabae) through contact and/or systemic means, the test unit consisted of a small open container with a 5-6-day-old Soleil bean plant (primary leaves emerged) inside. White sand was added to the top of the soil and one of the primary leaves was excised prior to application.
Test compounds were formulated and sprayed at 50 ppm and/or 10 ppm, and the tests were replicated three times as described for Test A. After spraying, the test units were allowed to dry for 1 h before they were post-infested with 5 potato leafhoppers (18-21-day-old adults). A black, screened cap was placed on the top of each test unit, and the test units were held for 6 days in a growth chamber at 24° C. and 70% relative humidity. Each test unit was then visually assessed for insect mortality.

SMILES	control efficacy: feeding damage (40% or less feeding damage and/or 100% mortality) ([1]; sprayed at 10 ppm)	control efficacy: feeding damage (40% or less feeding damage and/or 100% mortality) ([1]; sprayed at 50 ppm)	control efficacy: feeding damage (40% or less feeding damage and/or 100% mortality) ([2]; sprayed at 10 ppm)	control efficacy: feeding damage (40% or less feeding damage and/or 100% mortality) ([2]; sprayed at 50 ppm)	control efficacy: mortality ([3]; sprayed at 10 ppm)	control efficacy: mortality ([3]; sprayed at 50 ppm)
Cc1cccc(-c2c([O-])[n+](Cc3cnc(Cl)s3)c3c(C)cccn3c2=O)c1 [Compound 122]	≤ 40%	≤ 40%	≤ 40%	≤ 40%	≥ 80%	≥ 80%
CCc1cccc(-c2c([O-])[n+](Cc3cnc(Cl)s3)c3c(C)cccn3c2=O)c1 [Compound 123]	≤ 40%	≤ 40%	≤ 40%	≤ 40%	≥ 80%	≥ 80%
COc1ccc(F)cc1-c1c([O-])[n+](Cc2cnc(Cl)s2)c2c(C)cccn2c1=O [Compound 124]	≤ 40%	≤ 40%	–	≤ 40%	≥ 80%	≥ 80%
Cc1cccn2c(=O)c(-c3cccc(F)c3F)c([O-])[n+](Cc3cnc(Cl)s3)c12 [Compound 125]	≤ 40%	≤ 40%	≤ 40%	≤ 40%	≥ 80%	≥ 80%
COc1ccc(Br)cc1-c1c([O-])[n+](Cc2cnc(Cl)s2)c2c(C)cccn2c1=O [Compound 126]	≤ 40%	≤ 40%	≤ 40%	≤ 40%	≥ 80%	≥ 80%
Cc1cccn2c(=O)c(-c3cc(Cl)ccc3F)c([O-])[n+](Cc3cnc(Cl)s3)c12 [Compound 127]	≤ 40%	≤ 40%	≤ 40%	≤ 40%	≥ 80%	≥ 80%
Cc1cccn2c(=O)c(-c3ccc(Cl)c(OC(F)(F)F)c3)c([O-])[n+](Cc3cnc(Cl)s3)c12 [Compound 128]	≤ 40%	≤ 40%	≤ 40%	≤ 40%	–	≥ 80%
COc1ccc(Cl)cc1-c1c([O-])[n+](Cc2cnc(Cl)s2)c2c(C)cccn2c1=O [Compound 129]	≤ 40%	≤ 40%	–	≤ 40%	≥ 80%	≥ 80%
Cc1cccn2c(=O)c(-c3cc(Cl)ccc3Cl)c([O-])[n+](Cc3cnc(Cl)s3)c12 [Compound 130]	≤ 40%	≤ 40%	–	≤ 40%	≥ 80%	≥ 80%
COc1cccn2c(=O)c(-c3cc(Cl)cc(C(F)(F)F)c3)c([O-])[n+](Cc3cnc(Cl)s3)c12 [Compound 131]	≤ 40%	≤ 40%	≤ 40%	≤ 40%	≥ 80%	≥ 80%
COc1cc(OC)cc(-c2c([O-])[n+](Cc3cnc(Cl)s3)c3c(C)cccn3c2=O)c1 [Compound 132]	≤ 40%	≤ 40%	≤ 40%	≤ 40%	≥ 80%	≥ 80%
Cc1cccn2c(=O)c(-c3cccc(Cl)c3Cl)c([O-])[n+](Cc3cnc(Cl)s3)c12 [Compound 134]	≤ 40%	≤ 40%	≤ 40%	≤ 40%	–	≥ 80%
CCOc1cccc(-c2c([O-])[n+](Cc3cnc(Cl)s3)c3c(C)cccn3c2=O)c1 [Compound 135]	≤ 40%	≤ 40%	≤ 40%	≤ 40%	≥ 80%	≥ 80%
CCc1cccn2c(=O)c(-c3cccc(OC(F)(F)F)c3)c([O-])[n+](Cc3cnc(Cl)s3)c12 [Compound 136]	≤ 40%	≤ 40%	≤ 40%	≤ 40%	–	≥ 80%
CCOc1ccccc1-c1c([O-])[n+](Cc2cnc(Cl)s2)c2c(C)cccn2c1=O [Compound 152]	≤ 40%	≤ 40%	≤ 40%	≤ 40%	≥ 80%	≥ 80%
Cc1cccn2c(=O)c(-c3cc(Br)ccc3F)c([O-])[n+](Cc3cnc(Cl)s3)c12 [Compound 157]	≤ 40%	≤ 40%	≤ 40%	≤ 40%	≥ 80%	≥ 80%
Cc1cccn2c(=O)c(-c3ccc(Cl)c(F)c3)c([O-])[n+](Cc3cnc(Cl)s3)c12 [Compound 158]	≤ 40%	≤ 40%	≤ 40%	≤ 40%	≥ 80%	≥ 80%
Cc1cccn2c(=O)c(-c3cccc(F)c3)c([O-])[n+](Cc3cnc(Cl)s3)c12 [Compound 159]	≤ 40%	≤ 40%	≤ 40%	≤ 40%	≥ 80%	≥ 80%
Cc1cccn2c(=O)c(-c3cc(F)cc(F)c3)c([O-])[n+](Cc3cnc(Cl)s3)c12 [Compound 160]	≤ 40%	≤ 40%	≤ 40%	≤ 40%	≥ 80%	≥ 80%
Cc1cccn2c(=O)c(-c3ccc(Cl)cc3F)c([O-])[n+](Cc3cnc(Cl)s3)c12 [Compound 161]	≤ 40%	≤ 40%	≤ 40%	≤ 40%	≥ 80%	≥ 80%
Cc1cc(-c2c([O-])[n+](Cc3cnc(Cl)s3)c3c(C)cccn3c2=O)ccc1Cl [Compound 164]	≤ 40%	≤ 40%	–	≤ 40%	≥ 80%	≥ 80%
Cc1cccn2c(=O)c(-c3cc(F)ccc3F)c([O-])[n+](Cc3cnc(Cl)s3)c12 [Compound 165]	≤ 40%	≤ 40%	≤ 40%	≤ 40%	≥ 80%	≥ 80%
